# Laboratory results published in paper PMC5291076, “Analyzing native membrane protein assembly in nanodiscs by combined non-covalent mass spectrometry and synthetic biology” (eLife, 2017).
# Results are given in words; binding and its absence hold for the method and conditions named.
# Legend:
# [1] = biological target: Lipoprotein signal peptidase (UniProt P00804); assay: native MS; LILBID-MS of the membrane protein in MSP1E3D1 (DMPG) nanodiscs; 50 mM ammonium acetate pH 6.8; anionic mode; laser pulse energy between 9.5 and 23 mJ; unlabeled and (KcsA) 15N, 2H labeled samples; both purified
# [2] = biological target: Phospho-N-acetylmuramyl-pentapeptide-transferase E.coli (E. coli) (UniProt P0A6W3); assay: condition: only in nanodiscs of the zwitterionic lipid DMPC, without anionic lipid; native MS; LILBID-MS of the membrane protein in MSP1E3D1 (DMPC) nanodiscs; 50 mM ammonium acetate pH 6.8; both purified
binder,measurement,setting,value
"Lipoprotein signal peptidase (enzyme, UniProt P00804 1-164) MSQSICSTGLRWLWLVVVVLIIDLGSKYLILQNFALGDTVPLFPSLNLHYARNYGAAFSFLADSGGWQRWFFAGIAIGISVILAVMMYRSKATQKLNNIAYALIIGGALGNLFDRLWHGFVVDMIDFYVGDWHFATFNLADTAICVGAALIVLEGFLPSRAKKQ",binding,[1],no binding
"Phospho-N-acetylmuramyl-pentapeptide-transferase E.coli (enzyme, E. coli, UniProt P0A6W3 1-360, looked up, MraY translocase of E. coli; theoretical mass of the construct 42.22 kDa; Dimer in DMPG and in DMPC/DMPG nanodiscs, monomer in DMPC nanodiscs; also called Ec-MraY; E. coli MraY; source: cell-free (CECF, E. coli A19 lysate), co-translationally inserted into nanodiscs, purified (Streptactin)) MLVWLAEHLVKYYSGFNVFSYLTFRAIVSLLTALFISLWMGPRMIAHLQKLSFGQVVRNDGPESHFSKRGTPTMGGIMILTAIVISVLLWAYPSNPYVWCVLVVLVGYGVIGFVDDYRKVVRKDTKGLIARWKYFWMSVIALGVAFALYLAGKDTPATQLVVPFFKDVMPQLGLFYILLAYFVIVGTGNAVNLTDGLDGLAIMPTVFVAGGFALVAWATGNMNFASYLHIPYLRHAGELVIVCTAIVGAGLGFLWFNTYPAQVFMGDVGSLALGGALGIIAVLLRQEFLLVIMGGVFVVETLSVILQVGSFKLRGQRIFRMAPIHHHYELKGWPEPRVIVRFWIISLMLVLIGLATLKVR",binding,[2],no binding
